# Experimental data published in PubChem BioAssay AID1671190 (National Center for Advancing Translational Sciences (NCATS), 2021).
# Sequences of proteins named here, by UniProt entry; tags and fusion partners are left off. A change or cut given only in a name is not applied to a line headed by its entry.
# UniProt P18054: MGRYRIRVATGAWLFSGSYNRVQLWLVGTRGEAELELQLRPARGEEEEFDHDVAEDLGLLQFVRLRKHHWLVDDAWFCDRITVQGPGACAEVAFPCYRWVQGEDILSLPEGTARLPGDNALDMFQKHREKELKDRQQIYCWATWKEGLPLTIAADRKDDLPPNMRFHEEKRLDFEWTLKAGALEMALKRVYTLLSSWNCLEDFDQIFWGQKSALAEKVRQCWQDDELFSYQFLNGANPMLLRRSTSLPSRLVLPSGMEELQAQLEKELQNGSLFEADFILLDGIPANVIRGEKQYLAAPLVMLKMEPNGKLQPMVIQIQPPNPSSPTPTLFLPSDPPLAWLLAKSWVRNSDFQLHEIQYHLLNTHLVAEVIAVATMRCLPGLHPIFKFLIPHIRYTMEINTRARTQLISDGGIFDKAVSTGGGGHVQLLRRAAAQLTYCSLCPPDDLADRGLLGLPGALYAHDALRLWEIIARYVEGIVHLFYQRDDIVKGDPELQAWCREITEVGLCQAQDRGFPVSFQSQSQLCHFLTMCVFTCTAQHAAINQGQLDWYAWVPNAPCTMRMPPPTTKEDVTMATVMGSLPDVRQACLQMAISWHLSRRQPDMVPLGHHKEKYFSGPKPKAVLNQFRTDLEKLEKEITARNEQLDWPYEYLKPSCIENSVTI
# Values joined by “and” are separate entries in the source; they are usually repeats but may differ in a detail not shown here. Identical values can stand only once. Screen size: about 580,000 compounds; about 6,100 (1.1%) were called active. The inconclusive results got no clear call from the source; some entries with a clear call stand among them for comparison. Calls come from the whole dose curve; as a rule, active = well fitted inhibition curve with a large enough effect; inconclusive = small, poorly fitted or top-dose-only effect, or another doubt; inactive = no such curve, though single readings can be large or run the other way. Potencies beside an inconclusive call are fits to weak or partial responses and may not hold up.
# Molecular target: Polyunsaturated fatty acid lipoxygenase ALOX12 (Homo sapiens) (UniProt P18054)
# Test: Primary qHTS assay for inhibitors of human arachidonate 12S-lipoxygenase (ALOX12): Round 2
# Details: purified 12hLO, xylenol orange hydroperoxide absorbance; activity change, negative = inhibition: at 108 µM (top of the series) unless noted
# Method in brief: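 Purified human 12hLO (150 nM final) in 25 mM Hepes, 0.01% Triton X-100, pH 7.0 was preincubated 15 min at room temperature with compound. Then 40 uM arachidonic acid was added, 30 min. Hydroperoxide was read by Fe-XO absorbance ratio 573/405 nm.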
# % is set by controls: 0 for no effect and ±100 for the full control effect; potency is the fitted concentration of half-maximal effect.
Compound,"activity change, negative = inhibition",Potency
Cc1cc(C(=O)CSc2nnc(COc3ccc(Cl)cc3)o2)c(C)n1C1CC1,inactive: 10.5%,
O=C(NCc1ccco1)c1cc2nc(-c3cccs3)cc(C(F)(F)F)n2n1,,"inconclusive: 28.2 µM [inhibitor, partial curve, poor fit]"
O=c1c2ccc(Cl)cc2nc(-c2cccc(C(F)(F)F)c2)n1O,,"inconclusive: 20 µM [inhibitor, single point]"
Cc1c(C(=O)N2CCCCCC2)sc2nc(-c3ccc(F)cc3)cn12,,"inconclusive: 4.47 µM [inhibitor, full curve]"
CC(=O)N=c1sc2ccccc2n1C,inactive: 48%,
Fc1ccc(COc2cccc(CNCc3ccncc3)c2)cc1,inactive: -7.73%,
COc1ccc(-[n+]2c(C)cc(/C=C3\Sc4ccccc4N3C)cc2C)cc1,,"inconclusive: 44.7 µM [inhibitor, partial curve, poor fit]"
CCOC(=O)c1[nH]c(C)c(C(=O)OCC(=O)Nc2sc3c(c2C#N)CCCCC3)c1C,,"inconclusive: 100 µM [inhibitor, partial curve, poor fit]"
CCOC(=O)c1nc(C)n(-c2cc(OC)c(Cl)cc2Cl)n1,inactive: -11%,
CCc1cc(Cn2nc(-c3ccccc3)cc2C(=O)NCc2cccs2)on1,,active: 8.91 µM
OCCOCCn1c(C(CO)Nc2nc(-c3ccc(Cl)cc3)cs2)nc2ccccc21 (configuration not stated),inactive: -10.2%,
Cc1ccc(NC(=O)CN2C(=O)NC(C)(c3ccc(Cl)cc3)C2=O)cc1 (configuration not stated),inactive: -29.3%,
CCN(C(=O)CSc1nc2c(cnn2-c2ccccc2)c(=O)[nH]1)C1CCS(=O)(=O)C1 (configuration not stated),,"inconclusive: 100 µM [inhibitor, partial curve, poor fit]"
COc1ccc(Cl)cc1-c1ncc2c(n1)OCCN(c1ccccc1)C2=O,inactive: 1.47% [at 176 µM],
Cc1cccc(NC(=O)CSc2nnc(NC(=O)Nc3ccccc3)s2)c1C,,"inconclusive: 63.1 µM [inhibitor, partial curve, poor fit]"
CCO[C@H]1OC(C(=O)N2CCCCCCC2)=C[C@@H](C)[C@@H]1CCCO,,"inconclusive: 158 µM [inhibitor, partial curve, poor fit]"
CCC(C)NC(=O)N(C)C1CCN(c2ccc(Cl)cc2)CC1 (configuration not stated),inactive: 5.98%,
COc1cc2c(cc1NC(=O)Nc1ccccc1)oc1ccccc12,,"inconclusive: 100 µM [inhibitor, single point]"
O=C(CC1CC1)Nc1ccc2c(c1)[C@H]1C[C@H](CC(=O)N3CCc4ccccc4C3)O[C@@H](CO)[C@H]1O2,,"inconclusive: 28.2 µM [inhibitor, single point]"
S=C(NCCc1ccccn1)NC1CCCCC1,inactive: 20.8%,
Cc1nnc(SCC(=O)NCc2ccccc2Cl)[nH]c1=O,inactive: -10.3%,
CCCn1cnnc1CNC(=O)C1(Oc2ccc(Cl)cc2)CCNCC1,inactive: 3.61%,
CCOC(=O)c1cc(NC(=O)c2ccc(OC)cc2)c(=O)oc1-c1ccccc1,,"inconclusive: 17.8 µM [inhibitor, partial curve, poor fit]"

Compound,"activity change, negative = inhibition",Potency
Cc1cccc(OCC(O)Cn2c(N3CCCCC3)nc3c2c(=O)n(C)c(=O)n3C)c1 (configuration not stated),,"inconclusive: 100 µM [inhibitor, single point]"
S=C(NCc1ccco1)Nc1cc(Cl)c(Cl)cc1Cl,,"inconclusive: 50.1 µM [inhibitor, partial curve, poor fit]"
O=C(COc1ccc(F)cc1F)Nc1cccc2cccnc12,,"inconclusive: 50.1 µM [inhibitor, partial curve, poor fit]"
Cc1nc(-[n+]2nc(-c3ccncc3)nn2-c2ccccc2)sc1C,,"inconclusive: 141 µM [inhibitor, partial curve, poor fit]"
N#Cc1nnn(-c2cc(Cl)cc(Cl)c2)c1N,inactive: 11%,
COc1ccc(NS(=O)(=O)c2cccc(C(=O)NNC(=O)c3ccccc3O)c2)cc1,,"inconclusive: 20 µM [inhibitor, partial curve, poor fit]"
COc1ccc(/C=C(/C#N)C(=O)C(C)C)cc1O,,"inconclusive: 39.8 µM [inhibitor, partial curve, poor fit]"
C=CCN(CC=C)C(=O)C[n+]1ccc(C(N)=O)cc1,,"inconclusive: 35.5 µM [inhibitor, single point]"
COCCNC(=S)N/N=C(\C)c1ccc(OC)cc1,,"inconclusive: 44.7 µM [inhibitor, partial curve, poor fit]"
CC(C)(C)NC(=O)NC(=O)CSc1nc(-c2ccco2)nc2ccccc12,,"inconclusive: 39.8 µM [inhibitor, partial curve, poor fit]"
CN1CCN(Cc2cc(=O)oc3cc(O)c(Cl)cc23)CC1,,"inconclusive: 31.6 µM [inhibitor, partial curve, poor fit]"
CCCC(=O)N1CC2(CCN(C(C)=O)CC2)c2c(n(C)c3cc(OC)ccc23)[C@H]1CO,,"inconclusive: 56.2 µM [inhibitor, partial curve, poor fit]"
COC(CNC(=O)Cc1c(C)nc2cc(-c3ccccc3)nn2c1C)OC,inactive: 21.7%,
COc1ccc(C)cc1S(=O)(=O)Nc1cccc(C)c1,inactive: -0.728%,
O=C(NNC(=S)Nc1ccccc1)c1cc(-c2cccnc2)nc2ccccc12,,"inconclusive: 44.7 µM [inhibitor, partial curve, poor fit]"
CCCC(O)(CCN1CCOCC1)c1ccc(Cl)cc1 (configuration not stated),,"inconclusive: 31.6 µM [inhibitor, partial curve, poor fit]"
CCOC(=O)C1CCCN(C(=S)Nc2ccc(F)cc2)C1 (configuration not stated),,"inconclusive: 112 µM [inhibitor, single point]"
Cc1cc(C)cc(-n2c(SCC(=O)N3CCC(C)CC3)nc3c([nH]c4ccccc43)c2=O)c1,inactive: -22.2%,
CN1CCCN(C(=O)c2cccc(-c3ccc(C=C4C(=O)Nc5ccc(Cl)cc54)o3)c2)CC1,inactive: -35.5% [at 57.4 µM],
COCCn1c(-c2ccccc2Cl)n[nH]c1=S,,"inconclusive: 50.1 µM [inhibitor, partial curve, poor fit]"
CC1CN(C2CCN(S(=O)(=O)c3ccc4ccccc4c3)CC2)CC(C)O1 (configuration not stated),inactive: -18%,
Cc1cc(=O)oc2cc(OCCc3ccccc3)ccc12,,"inconclusive: 100 µM [inhibitor, single point]"
NC(=O)C1CCCN(C(=O)c2ccc(Cl)c(S(=O)(=O)N3CCc4ccccc43)c2)C1 (configuration not stated),,"inconclusive: 112 µM [inhibitor, single point]"

Compound,"activity change, negative = inhibition",Potency
Cc1[nH]c(C)c(S(=O)(=O)Nc2cccc(Cl)c2C)c1C(=O)N1CCCCC1,,"inconclusive: 7.08 µM [inhibitor, partial curve, poor fit]"
Cc1ccccc1NC(=O)COC(=O)c1cc(C(C)C)nc2ccccc12,inactive: 35.5%,
CSc1nc(-c2ccccc2)c(C#N)c(=O)[nH]1,inactive: -7.56%,
CC/C=C(\C(=O)N[C@@H]1C(=O)N2C(C(=O)OCOC(=O)C(C)(C)C)=C(COC(N)=O)CS[C@H]12)c1csc(N)n1,,"inconclusive: 12.8 µM [inhibitor, partial curve, poor fit]"
COc1ccc2[nH]cc(CCNS(=O)(=O)Cc3ccccc3)c2c1,,"inconclusive: 50.1 µM [inhibitor, partial curve, poor fit]"
COC(=O)c1ccc(NCC(=O)Nc2cc(C)cc(C)c2)cc1,,"inconclusive: 70.8 µM [inhibitor, single point]"
CCOC(=O)[C@]12Cc3c(cc(OC)c(OC)c3OC)[C@H]1N(C1CCCCC1)C(=O)c1cc(OC)ccc12,,"inconclusive: 89.1 µM [inhibitor, partial curve, poor fit]"
NNC(=O)C1=NOC2COC3(CCN(c4ncccn4)CC3)OCC12 (configuration not stated),inactive: 0.995%,
Cc1ccc(S(=O)(=O)c2nc(Nc3ccccc3N3CCOCC3)sc2Cl)cc1,,"inconclusive: 39.8 µM [inhibitor, partial curve, poor fit]"
CC(=O)Nc1nc(-c2ccc(Cl)cc2)ns1,,"inconclusive: 39.8 µM [inhibitor, partial curve, poor fit]"
O=C(Nc1ccc2c(c1)OCCO2)c1ccccc1F,inactive: 27.6%,
CSc1ncccc1C(=O)OCC(=O)NC1CCCc2ccccc21 (configuration not stated),,"inconclusive: 22.4 µM [inhibitor, full curve, poor fit]"
COc1ccc(OC)c(NC(=O)c2cccc3c2C(=O)N(C2CCCCC2)C3)c1,,"inactive and inconclusive: 126 µM [inhibitor, partial curve, poor fit]"
S=C(NCc1ccccc1)NC1CCSc2ccc(Cl)cc21 (configuration not stated),,"inconclusive: 35.5 µM [inhibitor, partial curve, poor fit]"
O=C(NCCN1CCCC(O)C1)c1cc(COc2ccc(F)cc2Cl)on1 (configuration not stated),inactive: -22.1%,
O=C(Cn1c(-c2cscn2)nc2ccccc21)Nc1ccc(N2CCCCC2)cc1,,"inconclusive: 35.5 µM [inhibitor, partial curve, poor fit]"
Cc1noc2c(NC(C)C)cc(-c3cccc(C(F)(F)F)c3)nc12,,"inconclusive: 7.08 µM [inhibitor, full curve]"
CC1CCN(S(=O)(=O)c2ccc3c(c2)c(=O)c(C(=O)N2CCCCC2)cn3C)CC1,,"inconclusive: 126 µM [inhibitor, single point]"
Cc1ccc(C)c(Cn2c(O)c(N=NC(=S)Nc3ccccc3F)c3ccccc32)c1,inactive: 3.63%,
CSc1nsc(SCC(=O)Nc2ccccc2C(=O)O)n1,,"inconclusive: 39.8 µM [inhibitor, partial curve, poor fit]"
Cn1c(NC(=O)C(C)(C)Oc2ccc(Cl)cc2)cc(=O)n(C)c1=O,,"inconclusive: 89.1 µM [inhibitor, single point]"
